# According to publication PMC11024185:
# T1: Dbp10 (2xStrep-bdNEDD8-DBP10) (S. cerevisiae) (UniProt Q12389)
# T1 sequence: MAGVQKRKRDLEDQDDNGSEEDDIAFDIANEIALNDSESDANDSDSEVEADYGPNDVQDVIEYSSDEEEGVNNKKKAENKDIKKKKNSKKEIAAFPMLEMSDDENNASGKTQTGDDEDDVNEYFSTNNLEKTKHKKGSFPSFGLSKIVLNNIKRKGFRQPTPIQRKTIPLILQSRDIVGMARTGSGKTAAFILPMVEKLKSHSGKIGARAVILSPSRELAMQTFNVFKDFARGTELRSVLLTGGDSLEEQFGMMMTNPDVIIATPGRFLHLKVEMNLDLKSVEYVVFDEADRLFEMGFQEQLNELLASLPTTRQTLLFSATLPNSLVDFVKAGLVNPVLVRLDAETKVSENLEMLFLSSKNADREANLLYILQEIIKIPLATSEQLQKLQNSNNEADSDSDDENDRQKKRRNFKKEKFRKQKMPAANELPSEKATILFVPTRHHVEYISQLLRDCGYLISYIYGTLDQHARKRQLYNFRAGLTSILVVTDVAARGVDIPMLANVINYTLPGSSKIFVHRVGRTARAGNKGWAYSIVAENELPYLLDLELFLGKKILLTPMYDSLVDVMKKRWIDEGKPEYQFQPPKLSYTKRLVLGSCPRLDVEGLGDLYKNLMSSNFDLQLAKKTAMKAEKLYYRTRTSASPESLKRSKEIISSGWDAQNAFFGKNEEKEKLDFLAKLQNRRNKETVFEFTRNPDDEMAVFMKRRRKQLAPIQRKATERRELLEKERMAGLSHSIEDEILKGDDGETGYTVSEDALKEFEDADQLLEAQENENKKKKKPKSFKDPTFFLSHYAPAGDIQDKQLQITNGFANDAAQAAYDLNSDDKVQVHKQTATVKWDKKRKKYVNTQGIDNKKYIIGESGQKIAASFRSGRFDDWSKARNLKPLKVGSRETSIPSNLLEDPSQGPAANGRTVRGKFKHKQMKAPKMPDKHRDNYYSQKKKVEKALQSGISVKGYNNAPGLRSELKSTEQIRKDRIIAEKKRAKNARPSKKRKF
# T2: Ssf1-3xFLAG-3C-2xProteinA (S. cerevisiae) (UniProt P38789)
# T2 sequence: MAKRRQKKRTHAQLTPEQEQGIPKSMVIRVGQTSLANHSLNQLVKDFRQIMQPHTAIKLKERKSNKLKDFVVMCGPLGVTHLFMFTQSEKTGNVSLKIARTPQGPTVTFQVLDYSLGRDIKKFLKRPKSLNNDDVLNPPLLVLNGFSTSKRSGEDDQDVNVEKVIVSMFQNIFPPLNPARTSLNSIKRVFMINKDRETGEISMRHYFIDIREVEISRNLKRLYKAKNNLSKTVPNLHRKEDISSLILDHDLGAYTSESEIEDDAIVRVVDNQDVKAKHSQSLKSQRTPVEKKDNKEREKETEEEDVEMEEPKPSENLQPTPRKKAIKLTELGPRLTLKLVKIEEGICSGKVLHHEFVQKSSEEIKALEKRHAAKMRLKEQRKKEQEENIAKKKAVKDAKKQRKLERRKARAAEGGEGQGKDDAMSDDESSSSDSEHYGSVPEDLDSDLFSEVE
# T3: Noc2-3xFLAG-3C-2xProteinA (S. cerevisiae) (UniProt P39744)
# T3 sequence: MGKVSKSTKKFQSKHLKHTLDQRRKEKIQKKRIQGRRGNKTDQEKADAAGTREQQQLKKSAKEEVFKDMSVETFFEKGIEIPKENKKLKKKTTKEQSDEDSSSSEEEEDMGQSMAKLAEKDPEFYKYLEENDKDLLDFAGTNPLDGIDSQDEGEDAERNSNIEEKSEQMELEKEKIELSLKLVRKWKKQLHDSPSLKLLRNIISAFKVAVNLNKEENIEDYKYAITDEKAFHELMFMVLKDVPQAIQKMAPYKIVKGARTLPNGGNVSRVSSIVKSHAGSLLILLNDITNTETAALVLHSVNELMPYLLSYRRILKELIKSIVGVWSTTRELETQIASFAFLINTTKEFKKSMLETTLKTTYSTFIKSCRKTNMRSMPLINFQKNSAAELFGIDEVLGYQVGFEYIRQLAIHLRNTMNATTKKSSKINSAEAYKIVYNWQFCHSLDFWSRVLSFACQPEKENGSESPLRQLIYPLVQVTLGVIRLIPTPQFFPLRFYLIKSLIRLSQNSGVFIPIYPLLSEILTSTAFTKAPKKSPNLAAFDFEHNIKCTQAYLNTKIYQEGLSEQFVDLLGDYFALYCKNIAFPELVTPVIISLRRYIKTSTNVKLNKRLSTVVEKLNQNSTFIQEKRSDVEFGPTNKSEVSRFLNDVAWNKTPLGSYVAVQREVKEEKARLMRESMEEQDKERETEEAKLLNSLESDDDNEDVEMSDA
# B1: Brx1 (protein, UniProt Q08235 1-291)
# chain: MSSIYKALAGKSKDNKSEKKQGNVKQFMNKQRTLLISSRGVNYRHRHLIQDLSGLLPHSRKEPKLDTKKDLQQLNEIAELYNCNNVLFFEARKHQDLYLWLSKPPNGPTIKFYIQNLHTMDELNFTGNCLKGSRPVLSFDQRFESSPHYQLIKELLVHNFGVPPNARKSKPFIDHVMSFSIVDDKIWVRTYEISHSTKNKEEYEDGEEDISLVEIGPRFVMTVILILEGSFGGPKIYENKQYVSPNVVRAQIKQQAAEEAKSRAEAAVERKIKRRENVLAADPLSNDALFK
# B2: Nop15 (protein, UniProt P53927 1-220)
# chain: MVKSTSKTSTKETVTKQPTEEKPIQEKEELALETSSSSSDEEDEKDEDEIEGLAASDDEQSGTHKIKRLNPKKQANEKKSKDKKTLEEYSGIIYVSRLPHGFHEKELSKYFAQFGDLKEVRLARNKKTGNSRHYGFLEFVNKEDAMIAQESMNNYLLMGHLLQVRVLPKGAKIEKLYKYKKRVLVEKGITKPVKQLKDNMKQKHEERIKKLAKSGIEFKW
# B3: Erb1 (protein, UniProt Q04660 1-807)
# chain: MMAKNNKTTEAKMSKKRAASEESDVEEDEDKLLSVDGLIDAEASESDEDDDEYESAVEEKESSSDKEAQDDSDDDSDAELNKLLAEEEGDGEEDYDSSEFSDDTTSLTDRLSGVKLQTIVDPNIYSKYADGSDRIIKPEINPVYDSDDSDAETQNTIGNIPLSAYDEMPHIGYDINGKRIMRPAKGSALDQLLDSIELPEGWTGLLDKNSGSSLNLTKEELELISKIQRNEQTDDSINPYEPLIDWFTRHEEVMPLTAVPEPKRRFVPSKNEAKRVMKIVRAIREGRIIPPKKLKEMKEKEKIENYQYDLWGDSTETNDHVMHLRAPKLPPPTNEESYNPPEEYLLSPEEKEAWENTEYSERERNFIPQKYSALRKVPGYGESIRERFERSLDLYLAPRVRKNKLNIDPNSLIPELPSPKDLRPFPIRCSTIYAGHKGKVRTLSIDPSGLWLATGSDDGTVRVWEILTGREVYRTTLIDDEENPDYHIECIEWNPDANNGILAVAVGENIHLIVPPIFGYDIENNGKTKIEDGFGYDTFGTVKKSNLEVNENGDGDEDGENESAKNAVKKQVAQWNKPSQKQLEKDICITISCKKTVKKLSWHRKGDYFVTVQPDSGNTSVLIHQVSKHLTQSPFKKSKGIIMDAKFHPFKPQLFVCSQRYVRIYDLSQQILVKKLLPGARWLSKIDIHPRGDNLIASSFDKRVLWHDLDLASTPYKTLRYHEKAVRSVNFHKKLPLFSSAADDGTIHVFHATVYDDMMKNPMIVPLKKLTGHKVINSLGVLDAIWHPREAWLFSAGADNTARLWTT
# B4: Rcm1 (enzyme, UniProt P53972 1-490)
# chain: MNFYRDATWVLEDIEKEAAKERISGSMQTLVLKSCKRYKLKSNPKHIYAVLDSCWKYKPYLEKVMKKAHILEDIPKKKGKPLFSRLTLLLLCHDLLLSKQKRIQMGKHPIKDYVLKFKSPLHSEMVKLKLKLKVRELSELVLSEDISNDLPPVRWIRINPLKCHPNGETEPVLAELRKKFTLKVDKWSELVPGSIYYDEFIPNLFGIHPSDKITAHELYKHGKIIIQDRASCFPAHILNPGPSDIVIDSCSAPGNKTTHTASYIYPEPPKDNNTRIYAFEKDPERAKVLQKMIKIAGCSPNISVNVGDFTKLATPEKYKDVTCFIVDPSCSGSGIFGRKFFDSFNRRKIDDKDDDGGIVPDEQEEFIAKEELQTRLAKLSSFQFQMVKHAMSFPAAKKIVYSTCSIHAEENERVVIDLLLDKSVREWGWKVAPKREVIPSWPRRGKVEEFEEVFRDGVTYDPQQLAEGCIRALPKSDGGIGFFAVCFERD
# B5: Nop7 (protein, UniProt P53261 1-605)
# chain: MRIKKKNTRGNARNFITRSQAVRKLQVSLADFRRLCIFKGIYPREPRNKKKANKGSTAPTTFYYAKDIQYLMHEPVLAKFREHKTFARKLTRALGRGEVSSAKRLEENRDSYTLDHIIKERYPSFPDAIRDIDDALNMLFLFSNLPSTNQVSSKIINDAQKICNQWLAYVAKERLVRKVFVSIKGVYYQANIKGEEVRWLVPFKFPENIPSDVDFRIMLTFLEFYSTLLHFVLYKLYTDSGLIYPPKLDLKKDKIISGLSSYILESRQEDSLLKLDPTEIEEDVKVESLDASTLKSALNADEANTDETEKEEEQEKKQEKEQEKEQNEETELDTFEDNNKNKGDILIQPSKYDSPVASLFSAFVFYVSREVPIDILEFLILSCGGNVISEAAMDQIENKKDIDMSKVTHQIVDRPVLKNKVAGRTYIQPQWIFDCINKGELVPANKYLPGEALPPHLSPWGDAIGYDPTAPVEEGEEEESESESESEDQVEEEDQEVVAGEEDDDDDEELQAQKELELEAQGIKYSETSEADKDVNKSKNKKRKVDEEEEEKKLKMIMMSNKQKKLYKKMKYSNAKKEEQAENLKKKKKQIAKQKAKLNKLDSKK
# B6: Ebp2 (protein, UniProt P36049 1-427)
# chain: MAKGFKLKELLSHQKEIEKAEKLENDLKKKKSQELKKEEPTIVTASNLKKLEKKEKKADVKKEVAADTEEYQSQALSKKEKRKLKKELKKMQEQDATEAQKHMSGDEDESGDDREEEEEEEEEEEGRLDLEKLAKSDSESEDDSESENDSEEDEDVVAKEESEEKEEQEEEQDVPLSDVEFDSDADVVPHHKLTVNNTKAMKHALERVQLPWKKHSFQEHQSVTSETNTDEHIKDIYDDTERELAFYKQSLDAVLVARDELKRLKVPFKRPLDYFAEMVKSDEHMDKIKGKLIEEASDKKAREEARRQRQLKKFGKQVQNATLQKRQLEKRETLEKIKSLKNKRKHNEIDHSEFNVGVEEEVEGKRFDRGRPNGKRAAKNAKYGQGGMKRFKRKNDATSSADVSGFSSRKMKGKTNRPGKSRRARRF
# Biological target: T1, Dbp10 (2xStrep-bdNEDD8-DBP10) (S. cerevisiae)
# Assay: affinity purification with mass spectrometry; split-tag purification of pre-60S particles from steady state DBP10 yeast: IgG Sepharose on Ssf1-2xProteinA, 3C cleavage, then Strep-Tactin on 2xStrep-Dbp10, desthiobiotin elution; buffers with 50 µM ADP-BeF3; Coomassie-stained 4-20% SDS-PAGE, bands named by molecular weight, ambiguous bands by mass spectrometry
row,Binder,binding
1,B1,binds
2,B2,binds
3,B3,binds
4,B4,binds
5,B5,binds
6,B6,binds

# Biological target: T2, Ssf1-3xFLAG-3C-2xProteinA (S. cerevisiae)
# Assay: as above
row,Binder,binding
1,B1,binds
2,B2,binds
3,B3,binds
4,B4,binds
5,B5,binds
6,B6,binds

# Biological target: T1, Dbp10 (2xStrep-bdNEDD8-DBP10) (S. cerevisiae)
# Assay: affinity purification with mass spectrometry; split-tag purification of pre-60S particles from SPB4-AID yeast without and with auxin (0.5 mM IAA, 45 min): IgG Sepharose on Noc2-2xProteinA, 3C cleavage, then Strep-Tactin on 2xStrep-Dbp10; buffers with 50 µM ADP-BeF3; Coomassie-stained 4-20% SDS-PAGE, bands named by molecular weight, ambiguous bands by mass spectrometry; auxin gave ~10-fold enrichment of the particle
row,Binder,binding
1,B1,binds
2,B2,binds
3,B3,binds
4,B4,binds
5,B5,binds
6,B6,binds

# Biological target: T3, Noc2-3xFLAG-3C-2xProteinA (S. cerevisiae)
# Assay: as above
row,Binder,binding
1,B1,binds
2,B2,binds
3,B3,binds
4,B4,binds
5,B5,binds
6,B6,binds

# No constants are given. Whether binding was seen depends on the method and setting. Binding seen in cells or lysates may run through a third protein. Here binding means that the protein was enriched with, or labelled near, the bait; the list need not be complete. For part of these data: Tags and fused reporters may be left off the sequences shown.
